Data as given in PubChem BioAssay AID493246 (Drosophila RNAi Screening Center, 2011)
Assay: 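Genes fly cells need to grow and stay alive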 (primary screen). System: Drosophila Kc and S2R+ cells. Knock-down reagent: long dsRNA against Drosophila genes. Detection: 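Cell number per well after knock-down, printed as raw plate values; calls were based on per-plate z-scores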. Direction: Kc cell number and S2R+ cell number: higher = more cells remaining. Hit rule: 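Counted as a hit if cell number falls by a z-score of at least 3 within its plate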.
The deposit covers about 21,000 reagents; shown is a random part of those with a known target gene and a result. In the full data, 429 (2%) were called active. 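Values are raw and not normalised between plates; calls rest on per-plate z-scores that were not deposited.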 Unmarked entries are inactive. Not stated in the record: the amount of reagent, the time to read-out.

fng (fringe) [DRSC11455]: Kc cell number, rep 1 = 1.32e6; Kc cell number, rep 2 = 1.25e6; S2R+ cell number, rep 1 = 1.01e6; S2R+ cell number, rep 2 = 1.19e6
fng (fringe) [DRSC11887]: Kc cell number, rep 1 = 1.54e6; Kc cell number, rep 2 = 1.58e6; S2R+ cell number, rep 1 = 1.36e6; S2R+ cell number, rep 2 = 1.39e6
CG14892 [DRSC15014]: Kc cell number, rep 1 = 1.36e6; Kc cell number, rep 2 = 1.35e6; S2R+ cell number, rep 1 = 9.19e5; S2R+ cell number, rep 2 = 1.04e6
AP-2sigma (Adaptor Protein complex 2, sigma subunit) [DRSC15957]: Kc cell number, rep 1 = 1.37e6; Kc cell number, rep 2 = 1.40e6; S2R+ cell number, rep 1 = 1.04e6; S2R+ cell number, rep 2 = 1.18e6
mbf1 (multiprotein bridging factor 1) [DRSC11365]: Kc cell number, rep 1 = 1.59e6; Kc cell number, rep 2 = 1.71e6; S2R+ cell number, rep 1 = 1.27e6; S2R+ cell number, rep 2 = 1.32e6
TrissinR (Trissin receptor) [DRSC02334]: Kc cell number, rep 1 = 1.64e6; Kc cell number, rep 2 = 1.44e6; S2R+ cell number, rep 1 = 1.16e6; S2R+ cell number, rep 2 = 1.27e6
TrissinR (Trissin receptor) [DRSC02335]: Kc cell number, rep 1 = 1.74e6; Kc cell number, rep 2 = 1.92e6; S2R+ cell number, rep 1 = 9.94e5; S2R+ cell number, rep 2 = 1.15e6
TrissinR (Trissin receptor) [DRSC02336]: Kc cell number, rep 1 = 1.72e6; Kc cell number, rep 2 = 1.72e6; S2R+ cell number, rep 1 = 1.23e6; S2R+ cell number, rep 2 = 1.35e6
x16 (x16 splicing factor) [DRSC00960]: Kc cell number, rep 1 = 1.70e6; Kc cell number, rep 2 = 1.71e6; S2R+ cell number, rep 1 = 1.15e6; S2R+ cell number, rep 2 = 1.34e6
x16 (x16 splicing factor) [DRSC03638]: Kc cell number, rep 1 = 1.43e6; Kc cell number, rep 2 = 1.44e6; S2R+ cell number, rep 1 = 6.60e5; S2R+ cell number, rep 2 = 6.56e5
ND-B14.5AL (NADH dehydrogenase (ubiquinone) B14.5 A subunit-like) [DRSC11795]: Kc cell number, rep 1 = 1.70e6; Kc cell number, rep 2 = 1.69e6; S2R+ cell number, rep 1 = 1.27e6; S2R+ cell number, rep 2 = 1.39e6
nenya [DRSC13838]: Kc cell number, rep 1 = 1.02e6; Kc cell number, rep 2 = 1.38e6; S2R+ cell number, rep 1 = 1.07e6; S2R+ cell number, rep 2 = 1.05e6
